PubChem BioAssay AID528 (NMMLSC, 2006)
The whole screen tested about 24,000 compounds, of which fewer than 10 were called active. The inconclusive results got no clear call from the source; some entries with a clear call stand among them for comparison.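 Rule for the calls: active = fluorescent ligand binding to cells raised by more than 40% of the manganese-induced maximum; inconclusive = compound's own fluorescence above 85% of the ligand control signal; inactive = the rest.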

Sequences of proteins named here, by UniProt entry; tags and fusion partners are left off.
UniProt P13612, whole entry, looked up: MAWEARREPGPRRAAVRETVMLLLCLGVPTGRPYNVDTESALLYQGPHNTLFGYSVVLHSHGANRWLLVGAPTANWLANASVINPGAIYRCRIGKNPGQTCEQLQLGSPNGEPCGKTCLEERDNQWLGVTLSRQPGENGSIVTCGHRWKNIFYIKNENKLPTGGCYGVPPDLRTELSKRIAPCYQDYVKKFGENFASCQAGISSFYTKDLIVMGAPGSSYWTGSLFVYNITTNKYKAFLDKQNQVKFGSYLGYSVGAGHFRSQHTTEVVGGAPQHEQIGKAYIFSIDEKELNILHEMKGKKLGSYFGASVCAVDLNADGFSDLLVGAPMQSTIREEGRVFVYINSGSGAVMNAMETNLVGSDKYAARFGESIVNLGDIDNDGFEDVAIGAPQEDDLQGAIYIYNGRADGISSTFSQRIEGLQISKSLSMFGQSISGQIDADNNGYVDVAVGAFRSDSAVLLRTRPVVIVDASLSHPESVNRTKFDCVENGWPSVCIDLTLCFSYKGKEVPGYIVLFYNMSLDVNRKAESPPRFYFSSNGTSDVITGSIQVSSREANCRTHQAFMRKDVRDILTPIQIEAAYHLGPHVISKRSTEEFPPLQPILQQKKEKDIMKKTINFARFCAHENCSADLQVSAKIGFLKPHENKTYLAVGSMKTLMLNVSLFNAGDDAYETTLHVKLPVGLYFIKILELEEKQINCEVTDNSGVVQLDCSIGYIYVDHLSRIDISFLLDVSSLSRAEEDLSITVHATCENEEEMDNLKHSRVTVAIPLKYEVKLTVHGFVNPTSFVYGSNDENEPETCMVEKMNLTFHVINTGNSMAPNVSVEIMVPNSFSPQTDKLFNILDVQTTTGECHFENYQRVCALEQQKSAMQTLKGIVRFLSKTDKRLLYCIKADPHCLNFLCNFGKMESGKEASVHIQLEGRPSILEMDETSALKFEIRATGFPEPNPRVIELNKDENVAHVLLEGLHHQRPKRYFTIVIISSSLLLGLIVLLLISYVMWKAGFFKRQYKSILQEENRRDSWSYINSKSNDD

Target: Integrin alpha-4 (Homo sapiens) (UniProt P13612)
Assay: enhancers of LDV-FITC binding to VLA-4 integrin, primary screen, Jurkat cells, flow cytometry (AID 528);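 for activation: 0% = ligand binding without compound and 100% = manganese-stimulated maximal binding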
Conditions: active compounds read high, screened at 10 µM (by protocol)

Row | Compound | activation
1 | O=C1SC(c2ccccc2)=N/C1=C/c1ccco1 | inconclusive
2 | CCOC(=O)CCN(Cc1cccs1)S(=O)(=O)c1ccc(Cl)cc1 | inconclusive
3 | Cc1c(Cl)cccc1NC(=O)c1cc(C2CC2)on1 | inactive: 4%
4 | CCC(C)NC(=O)CN1C(=O)CC(C)(C)S(=O)(=O)c2ccccc21 (stereo not given) | inconclusive
5 | CCCN(CCC)C(=O)CSc1nc2ccccc2c(=O)n1C1CCCC1 | inconclusive
6 | Cn1cccc1Cc1nnc(SCC(=O)NCc2ccc3c(c2)OCO3)n1CCc1ccccc1 | inactive: -4%
7 | COCCn1c(=S)[nH]c2cc(C(=O)N3CCN(c4ccc(F)cc4)CC3)ccc2c1=O | inactive: -2%
8 | COc1ccc(CCNC(=O)c2ccn[nH]2)cc1OC | inactive: 3%
9 | CCC(C(=O)Nc1ncccn1)(C(F)(F)F)C(F)(F)F | inconclusive
10 | O=C(O)Cn1c(SC2CCCCC2)nc2ccccc21 | inactive: 7%
11 | O=S(=O)(NCc1cn2ccccc2n1)c1cc(F)ccc1F | inconclusive
12 | Cn1c(=O)oc2cc(S(=O)(=O)Nc3ccc(Cl)cc3F)ccc21 | inconclusive
13 | O=C(O)C1C2C=CC(O2)C1C(=O)NCc1ccc(Cl)cc1 (stereo not given) | inactive: 9.5%
14 | Nc1nc(Cn2nnc(-c3ccccc3F)n2)nc(N2CCOCC2)n1 | inactive: 2%
15 | CCOc1ccc(OCC)c(NC(=O)CC2Oc3ccc(C)cc3NC2=O)c1 (stereo not given) | inconclusive
16 | CCCC(=O)Nc1nnc(CC(=O)OCC)s1 | inactive: -0.5%
17 | CCOc1cc2[nH]c(=O)n(CC3CCC(C(=O)NC(C)CC)CC3)c(=O)c2cc1OCC (stereo not given) | inactive: -9%
18 | O=C(Nc1ccccc1C(=O)N1CCCC1)c1cccc(S(=O)(=O)N2CCCCC2)c1 | inconclusive
19 | COC(=O)Nc1ccc(C)c2nsnc12 | inconclusive
20 | Cc1noc(C)c1S(=O)(=O)Nc1ccc(C(=O)N2CCc3ccccc3C2)cc1 | inactive: 7%
21 | COc1ccccc1S(=O)(=O)n1cc(Cc2ccccc2)c(N)n1 | inactive: -5%
22 | O=[n+]1c2c(n([O-])c3cc(F)c(N4CCCC4)cc31)CCC2 | inconclusive
23 | Cc1ccccc1-c1nc(CS(=O)CC(=O)NCCN2CCOCC2)c(C)o1 (stereo not given) | inconclusive
24 | O=C(NCCC1=CCCCC1)C1CCN(Cc2cnn(-c3ccccc3)c2-n2cccc2)CC1 | inconclusive
25 | Cc1nc2sc(C(c3ccco3)N3CCOCC3)c(O)n2n1 (stereo not given) | inconclusive

Row | Compound | activation
26 | O=C(O)C1C2C=CC(C2)C1C(=O)N1CCN(CCO)CC1 (stereo not given) | inactive: -2%
27 | COc1cccc(Nc2cc(C)nc3ccccc23)c1 | inconclusive
28 | Cc1nc2c(-c3ccc(F)cc3)c(C)nn2c(C)c1CCC(=O)NC(C)CCc1ccco1 (stereo not given) | inactive: -5.7%
29 | O=C(Nc1ccc2c(c1)OCO2)C1CCN(S(=O)(=O)c2cccc3cccnc23)CC1 | inconclusive
30 | O=C(NCCN1CCOCC1)NC1(C(F)(F)F)Oc2ccc(Cl)cc2O1 (stereo not given) | inactive: 2%
31 | O=C(Nc1cccc2ccccc12)c1cnccn1 | inconclusive
32 | Cc1cc(C)c(NC(=O)CSc2nnc(Cc3cccn3C)n2-c2ccc(F)cc2)c(C)c1 | inconclusive
33 | CC(NC(=O)Cc1ccc(F)cc1)C(c1cccs1)N1CCN(C)CC1 (stereo not given) | inactive: 0%
34 | Cc1ccc(C)n1CCN1CCN(CC(=O)Nc2cc(C(F)(F)F)ccc2Cl)CC1 | inconclusive
35 | COc1nc(Oc2ccc(=O)n(C)n2)nc(N(C)C)n1 | inactive: 4%
36 | CCOC(=O)c1c(C)n(C)c2c(C)cc(O)c(OC(C)=O)c12 | inconclusive
37 | COc1cc(CO)cc(-c2cc(CO)cc(OC)c2OC)c1OC | inconclusive
38 | COc1ccc(N2CCN(C(=O)c3cc4c(-c5cccc(OC)c5)nn(C)c4s3)CC2)cc1 | inconclusive
39 | COc1ccc(NC(=O)C2CCN(S(=O)(=O)c3cccnc3)CC2)cc1Cl | inactive: 3%
40 | CCN1CCCC1CNC(=O)c1cc(NC(C)=O)c(N(C)C)cc1OC (stereo not given) | inactive: -1%
41 | Cn1c(C(=O)O)c(CC(=O)Nc2ccc3c(c2)OCCO3)c2ccccc21 | inconclusive
42 | COC(=O)c1ccc(-c2ccc(CNCC(O)c3ccccc3)o2)cc1 (stereo not given) | inactive: -0.5%
43 | CC(C)OCCCNC(=O)CN1C(=O)CC(C)(C)S(=O)(=O)c2ccccc21 | inconclusive
44 | CCN(CC)C(=O)c1sc2nc(-c3cccs3)cc(-c3cccs3)c2c1N | inconclusive
45 | Cc1ccc(-c2noc(CSc3nc(N)cc(N)n3)n2)cc1 | inconclusive
46 | O=C(c1ccco1)N1CCN(/C(=N/S(=O)(=O)c2cccs2)c2ccccc2Cl)CC1 | inactive: -4%
47 | COc1ccccc1CNC(=O)CCNC(=O)Cn1cnc2ccccc2c1=O | inconclusive
48 | COc1ccc(-c2nc(N3CCOCC3)nc3nn4c(C)c(CCC(=O)O)c(C)nc4c23)cc1 | inactive: -3%
49 | Cc1ccc(C(c2sc3nc(C)nn3c2O)N2CCN(c3ccccc3F)CC2)cc1 (stereo not given) | inconclusive
50 | Nc1nnnn1/N=C/c1ccccc1OCc1ccc(Cl)cc1Cl | inconclusive

Among those listed so far, these contain an NH in an aromatic ring:
Row | Compound | activation
7 | COCCn1c(=S)[nH]c2cc(C(=O)N3CCN(c4ccc(F)cc4)CC3)ccc2c1=O | inactive: -2%
8 | COc1ccc(CCNC(=O)c2ccn[nH]2)cc1OC | inactive: 3%
17 | CCOc1cc2[nH]c(=O)n(CC3CCC(C(=O)NC(C)CC)CC3)c(=O)c2cc1OCC (stereo not given) | inactive: -9%

(cont.)

Row | Compound | activation
51 | Cc1ccc(NC(=O)c2nnn(CC(=O)Nc3ccccc3)c2N)cc1C | inconclusive
52 | CS(=O)(=O)c1nc(-c2ccco2)cc(C(F)(F)F)n1 | inconclusive
53 | COc1ccc2nc(Nc3nc(C)c(C(C)=O)s3)sc2c1 | inactive: -12%
54 | COc1cccc(CNC(=O)C2CCN(Cc3cnn(-c4ccccc4)c3-n3cccc3)CC2)c1 | inconclusive
55 | NC(=O)NC(=O)CSc1cccc(C(F)(F)F)c1 | inactive: 1%
56 | CCCS(=O)(=O)NCCc1cc2ccc(C)cc2[nH]c1=O | inconclusive
57 | Nn1cnn(Cc2ccccc2)c1=S | inconclusive
58 | Cc1ccc(-n2ncc3c(=O)[nH]c(SCC(=O)N4CCCc5ccccc54)nc32)cc1 | inconclusive
59 | Cc1nc2c(C(=O)NCc3ccco3)cnn2c(C)c1Cc1ccc(F)cc1Cl | inconclusive
60 | Cc1cccc(Cc2c(C)nc3c(C(=O)NCc4ccco4)cnn3c2C)c1 | inconclusive
61 | COc1ccc(NC(=O)CN2C(=O)CC(C)(C)S(=O)(=O)c3ccccc32)cc1 | inactive: -5%
62 | COC(=O)c1ccc(CSc2nc3c(cnn3-c3ccccc3)c(=O)[nH]2)o1 | inconclusive
63 | CC(=O)C1C(c2cccc(F)c2)NC(=O)NC1(O)C(F)(F)F (stereo not given) | inactive: 5%
64 | CCCc1cc(-n2ccnc2)n2c(nc3ccccc32)c1C#N | inconclusive
65 | Cc1cc(N2CCN(C3CCCC3)CC2)n2c(nc3ccccc32)c1C#N | inactive: -1%
66 | Cc1ccc(S(=O)(=O)C2(C(=O)N3CCCC(C)C3)CC2)cc1 (stereo not given) | inconclusive
67 | Cc1ccc(-n2ncc3c(=O)[nH]c(SCC(=O)N4CCOCC4)nc32)cc1 | inconclusive
68 | N#Cc1cccc(NC(=O)Nc2cccs2)c1 | inconclusive
69 | O=C(c1cc2cc3ccc(Cl)cc3nc2o1)N1CCN(Cc2ccc3c(c2)OCO3)CC1 | inconclusive
70 | CCOC(=O)c1cccc(NC(=O)c2cnc3ccccc3n2)c1 | inconclusive
71 | c1ccc(CN2CCN(c3nc4ccccc4n4cnnc34)CC2)cc1 | inconclusive
72 | O=C(c1cccc(F)c1)N1CCc2ccccc21 | inconclusive
73 | Cc1c(Cc2ccccc2)sc(N)c1C(N)=O | inconclusive
74 | CCN1CCN(c2ncc(C(=O)Nc3ccccc3C(=O)OC)c3ccccc23)CC1 | inactive: -9%
75 | O=C(NCc1ccc2c(c1)OCO2)c1cc2c(s1)CSC2 | inconclusive

Among those listed so far, these contain a COOH group.
Row | Compound | activation
10 | O=C(O)Cn1c(SC2CCCCC2)nc2ccccc21 | inactive: 7%
13 | O=C(O)C1C2C=CC(O2)C1C(=O)NCc1ccc(Cl)cc1 (stereo not given) | inactive: 9.5%
26 | O=C(O)C1C2C=CC(C2)C1C(=O)N1CCN(CCO)CC1 (stereo not given) | inactive: -2%
41 | Cn1c(C(=O)O)c(CC(=O)Nc2ccc3c(c2)OCCO3)c2ccccc21 | inconclusive
48 | COc1ccc(-c2nc(N3CCOCC3)nc3nn4c(C)c(CCC(=O)O)c(C)nc4c23)cc1 | inactive: -3%

Continued.

Row | Compound | activation
76 | CCOC(=O)CNc1c(-c2ccc(Cl)cc2)nc2cnccn12 | inconclusive
77 | O=C(c1ccccc1-c1ccccc1)N1CCN(c2ccccn2)CC1 | inconclusive
78 | CCCCCn1c(SCC#N)nc2cc(C(=O)NCC3CCCO3)ccc2c1=O (stereo not given) | inconclusive
79 | Cc1oc2cc3oc(=O)c4c(c3cc2c1C)CCC4 | inconclusive
80 | O=C(NC1CCCCC1)n1c(=O)oc2ccc(Cl)cc21 | inconclusive
81 | CCCCCOC(=O)C1=C(C)Nc2nnnn2C1c1ccc(OC)c(OC)c1OC (stereo not given) | inactive: -4%
82 | Cc1cc2cc(CCNC(=O)c3ccc(S(=O)(=O)N4CCOCC4)cc3)c(=O)[nH]c2cc1C | inconclusive
83 | CCN(CCCNC(=O)Cn1ncc2c(=O)oc3ccccc3c21)c1cccc(C)c1 | inconclusive
84 | CC(C)(O)c1cn(-c2nonc2N)nn1 | inactive: 4%
85 | CCOC(=O)c1ccc(NC(=O)c2c(C)[nH]c(C(=O)OCC)c2C)cc1 | inconclusive
86 | CCOC(=O)N1CCN(C(=O)CSc2nnc(Cn3c(=O)sc4ccccc43)n2C)CC1 | inconclusive
87 | Cn1c(/C(C#N)=C(\O)c2ccc(S(=O)(=O)N3CCCCC3)cc2)nc2ccccc21 | inconclusive
88 | COc1c(C)cc(Br)cc1C(=O)Nc1cccc(-c2nc3ncccc3o2)c1 | inconclusive
89 | COc1cccc(C2CC(c3cccs3)Nc3ncnn32)c1 (stereo not given) | inconclusive
90 | COC(=O)c1ccc2c(c1)N(Cc1nc(-c3cccc(C)c3)oc1C)C(=O)C1CCCN21 (stereo not given) | inconclusive
91 | O=C(CCN1C(=O)COc2ccccc21)NCc1cccs1 | inactive: 7%
92 | CCOC(=O)c1oc2ccc(S(=O)(=O)N3CCC(C)CC3)cc2c1C | inconclusive
93 | Cc1cc(N2CCOCC2)nc2cc(O)ccc12 | inconclusive
94 | Cc1ccc(C)c(N2CCN(C(=O)CC3Sc4ccccc4NC3=O)CC2)c1 (stereo not given) | inconclusive
95 | CC(C)CCNC(=O)C1C2C=CC3(CN(Cc4ccccc4Cl)C(=O)C13)O2 (stereo not given) | inconclusive
96 | CCOC(=O)C(C)Sc1ncnc2nc[nH]c12 (stereo not given) | inconclusive
97 | COc1ccc(N2CCN(C(CNS(=O)(=O)c3cccs3)c3cccnc3)CC2)cc1 (stereo not given) | inconclusive
98 | CCOC(=O)Nc1c(C(=O)OC)[nH]c2cccc(OC)c12 | inconclusive
99 | Cc1cccc(-n2nnc(C(=O)Nc3ccc(F)cc3)c2N)c1 | inconclusive
100 | CCOC(=O)N1CCN(c2c(NCCCN(C)c3ccccc3)c(=O)c2=O)CC1 | inconclusive
